Reference: patent US20240425574A1, “ANTI-PDGF-B ANTIBODIES AND PHARMACEUTICAL COMPOSITION THEREOF” (Regeneron Pharmaceuticals, Inc., priority 2021, published 2024)

Columns and labels:
Human PDGF-DD = details: read-out: IC50 Calcium Flux, PDGF-DD; PASMC; 1 nM PDGF-DD constant
Description: Upon reaching 100% confluency within each well, PDGF driven calcium flux was assessed via the FLIPR® Calcium 5 Assay Kit on the FLIPR Tetra System (Molecular Devices) following the manufacturer's protocol. In brief, complete media was replaced with 50 μL assay media (DMEM-0.1% BSA-1× Penicillin/Streptomycin/L-Glutamine). The Calcium 5 dye was then reconstituted in the supplied buffer in the presence of probenecid. […] Human PDGF-AA, PDGF-BB and PDGF-DD serial dilutions and inhibitory constants were generated on separate dosing plates. A 0.5 nM concentration of PDGF-BB, 1 nM concentration of PDGF-DD and a 3 nM concentration of PDGF-AA were chosen as constants to assess antibody and small molecule inhibition. […] Antibodies were pre-incubated with PDGF proteins for 30 minutes before addition onto the cells via the FLIPR tetra system. […] These calcium traces were analyzed for their Max-Min values using the SoftMax Pro Software (Molecular Devices).

PDGF-AA = details: read-out: IC50 Proliferation, PDGF-AA; PASMC; IncuCyte cell confluence at day 6
PDGF-DD = details: read-out: IC50 Proliferation, PDGF-DD; PASMC; IncuCyte cell confluence at day 6

Cc1ccc(NC(=O)c2ccc(CN3CCN(C)CC3)cc2)cc1Nc1nccc(-c2cccnc2)n1 [Imatinib]
IC50 (Human PDGF-DD): 660 nM
IC50 (PDGF-AA): 110 nM
IC50 (PDGF-DD): 320 nM
